Data from PubChem BioAssay AID248 (DTP/NCI, 2004).
The list is a part of this screen's results and no random one: it is rich in T/C values a quarter to a half above the control, in often repeated tests (any T/C) and in doses without a T/C. Other doses and runs of a compound stand elsewhere. T/C gives the treated animals as a percentage of the vehicle group. Some entries give survivors of the animals treated and no T/C: the source files T/C as zero there, which appears to mark a toxic dose or a test without result, not a measured value. Some survivor counts are full or nearly so, which does not show that the dose was tolerated: the source hardly ever lists a survival T/C far under the control, and the zero likely stands for such cases as well. Survivors were counted at the toxicity check, usually on the fifth day, unless a day is given; later deaths do not show. Schedules are NCI's codes, taken here to give the interval after Q, in days (D) or hours (H), and the number of doses after X. For survival time, this PubChem deposit counts one and a half times the control or more as active, and values a quarter to a half above the control carry no call in these data; other NCI protocols may use other cut-offs.

Tested on: L1210 leukemia ip in BDF1 mice, survival T/C
Assay: NCI In Vivo Anticancer Drug Screen. Data for tumor model L1210 Leukemia (intraperitoneal) in B6D2F1 (BDF1) mice
Conditions: T/C endpoint: mean survival time, higher T/C = longer survival

CCOc1ccccc1/C=N\NC(=O)CCCC(=O)N/N=C/c1ccccc1OCC
survivor count (dose: 50.0 mg/kg/injection, schedule: Q01DX001 (ip), vehicle: saline): 4 of 4 | survivor count (dose: 100.0 mg/kg/injection, schedule: Q01DX001 (ip), vehicle: saline): 4 of 4 | survivor count (dose: 200.0 mg/kg/injection, schedule: Q01DX001 (ip), vehicle: saline): 4 of 4

C=CCCCCCCCCC(=O)N/N=C/c1ccccc1
survivor count (dose: 400.0 mg/kg/injection, schedule: Q04DX002 (ip), vehicle: Klucel (hydroxypropylcellulose) (HPC)): 1 of 3

Nc1ccc(S(=O)(=O)c2ccc(N)cn2)cc1
T/C (dose: 200.0 mg/kg/injection, schedule: Q04DX002 (ip), vehicle: Klucel (hydroxypropylcellulose) (HPC)): 128 % of control

ClC(Cl)C(Cl)(Cl)C(Cl)(Cl)Cl
survivor count (dose: 400.0 mg/kg/injection, schedule: Q04DX003 (ip), vehicle: Klucel (hydroxypropylcellulose) (HPC)): 3 of 6

O=[N+]([O-])c1cc(S(=O)(=O)F)cc(Cl)c1O
survivor count (dose: 400.0 mg/kg/injection, schedule: Q01DX009 (ip), vehicle: Klucel (hydroxypropylcellulose) (HPC)): 0 of 6

O=C1NCC2(CCCCCC2)O1
survivor count (dose: 400.0 mg/kg/injection, schedule: Q01DX001 (ip), vehicle: saline): 3 of 6

CC1=CC(c2ccc3c(c2)OCO3)c2c(c3ccccc3oc2=O)O1 (stereo unspecified)
survivor count (dose: 100.0 mg/kg/injection, schedule: Q01DX009 (ip), vehicle: water): 1 of 6 | survivor count (dose: 200.0 mg/kg/injection, schedule: Q01DX009 (ip), vehicle: water): 2 of 6 | survivor count (dose: 400.0 mg/kg/injection, schedule: Q01DX009 (ip), vehicle: water): 1 of 6
